This is an account of results in patent publication US20030158199A1, “Novel compounds for inhibition of Tie-2” (KYLIX, B.V., priority 2002, published 2003).

Protein sequences, listed by entry. Tags and fused reporters are not part of them. Residues count along the entry.
UniProt Q02763, 771-1124 limits assumed: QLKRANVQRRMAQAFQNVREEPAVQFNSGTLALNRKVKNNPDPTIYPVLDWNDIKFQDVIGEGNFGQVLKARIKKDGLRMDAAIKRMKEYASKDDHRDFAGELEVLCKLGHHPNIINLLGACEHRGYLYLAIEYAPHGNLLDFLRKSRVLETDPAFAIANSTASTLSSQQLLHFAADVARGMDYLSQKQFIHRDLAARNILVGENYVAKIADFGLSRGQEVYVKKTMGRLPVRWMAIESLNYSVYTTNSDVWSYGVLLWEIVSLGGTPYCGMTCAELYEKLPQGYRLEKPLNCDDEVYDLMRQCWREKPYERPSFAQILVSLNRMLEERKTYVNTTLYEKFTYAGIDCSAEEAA
UniProt P35968, 807-1356 limits assumed: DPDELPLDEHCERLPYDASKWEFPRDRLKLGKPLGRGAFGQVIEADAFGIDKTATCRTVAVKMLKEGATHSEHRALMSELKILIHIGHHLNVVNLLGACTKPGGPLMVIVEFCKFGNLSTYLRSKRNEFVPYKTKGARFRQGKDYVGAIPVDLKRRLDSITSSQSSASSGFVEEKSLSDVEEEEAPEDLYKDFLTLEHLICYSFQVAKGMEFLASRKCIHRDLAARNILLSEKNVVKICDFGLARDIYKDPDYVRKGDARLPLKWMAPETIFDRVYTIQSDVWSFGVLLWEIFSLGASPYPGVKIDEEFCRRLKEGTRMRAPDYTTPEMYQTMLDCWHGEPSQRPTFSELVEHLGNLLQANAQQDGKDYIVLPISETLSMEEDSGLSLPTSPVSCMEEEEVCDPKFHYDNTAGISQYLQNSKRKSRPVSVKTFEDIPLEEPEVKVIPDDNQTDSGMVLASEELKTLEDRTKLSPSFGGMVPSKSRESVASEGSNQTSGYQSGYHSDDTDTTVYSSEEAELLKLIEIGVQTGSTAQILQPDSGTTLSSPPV
UniProt P08581, 956-1390 limits assumed: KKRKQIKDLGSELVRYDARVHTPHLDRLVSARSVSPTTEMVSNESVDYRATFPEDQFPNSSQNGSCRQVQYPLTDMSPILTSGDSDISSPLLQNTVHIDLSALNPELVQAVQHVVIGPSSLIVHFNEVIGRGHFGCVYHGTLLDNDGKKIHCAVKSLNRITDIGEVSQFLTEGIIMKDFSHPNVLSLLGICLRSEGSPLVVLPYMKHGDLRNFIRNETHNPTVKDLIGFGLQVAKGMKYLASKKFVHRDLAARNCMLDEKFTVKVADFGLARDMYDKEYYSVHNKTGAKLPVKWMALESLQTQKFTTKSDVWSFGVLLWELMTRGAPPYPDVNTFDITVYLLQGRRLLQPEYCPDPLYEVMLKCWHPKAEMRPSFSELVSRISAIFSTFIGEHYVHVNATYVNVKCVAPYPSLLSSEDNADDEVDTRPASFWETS

One test concerns the target Tie-2 (Homo sapiens, UniProt Q02763). In words: RTK ELISA, recombinant kinase domain, Tie-2. The settings on record: read-out: IC50 Tie-2, GST-Tie2/Tek (aa 771-1124) expressed in baculovirus infected insect cells, tested form: HBr. How it is done:
(§1) Follwing IC50 values were determined in the RTK ELISA using recombinant kinase domains of receptor tyrosine kinases which were expressed in baculovirus infected insect cells.
(§2) Receptor Tyrosine Kinase Assay
(§3) The following in vitro assays are used to determine the ability of different compounds to inhibit the transfer of phosphate groups onto tyrosine residues of downstream substrates. The level of phosphorylation is measured by a monoclonal antibody which is specific for phosphorylated tyrosine residues in an enzyme-linked immunosorbent assay (ELISA).
(§4) The following recombinant kinases were expressed in baculovirus infected insect cells Sf9 and purchased from ProQuinase, Freiburg:
(§5) If not otherwise indicated all steps are performed at room temperature.
(§6) 1.) Coat wells of ELISA plate with […] Poly-Glu-Tyr 4:1 in 100 μl/well PBS buffer (137 mM NaCl, 3 mM KCl, 1.5 mM KH2PO4, 8.2 mM Na2HPO4) overnight at 4° C.
(§7) 2.) Wash 2 times for 5 min each with PBS+0.05% Tween20 […]
(§8) a) Add 5-30 ng/well kinase in 50 μl/well kinase buffer (100 mM HEPES pH 7.4, 100 mM NaCl, 0.1 mM Na3VO4) b) Add 25 μl/well compound (50 and 5 μM) in 5% DMSO c) Add 25 μl/well 100 μM ATP in 40 mM MnCl2
(§9) 4.) Wash 3 times for 5 min each with PBS+0.05% Tween20
(§10) 5.) Add anti phosphotyrosin antibody/HRP 1:10.000 in 100 μl/well PBS+0.05% Tween+0.1 BSA, incubate for 1 h […]
(§11) 8.) Detect chemoluminescence signals in Tecan Genios reader
A general note: ELISA stands for enzyme-linked immunosorbent assay.

The target in another test is KDR (Homo sapiens, UniProt P35968). Briefly: RTK ELISA, recombinant kinase domain, KDR. Conditions: read-out: IC50 KDR, GST-KDR (aa807-1356) expressed in baculovirus infected insect cells, tested form: HBr. How it is done:
as §1, §2, §3, §4, §5, §6, §7, §8, §9, §10, §11

The target of the next test is c-Met (Homo sapiens, UniProt P08581). In words: RTK ELISA, recombinant kinase domain, c-Met. The settings on record: read-out: IC50 c-Met, GST-cMet (aa956-1390) expressed in baculovirus infected insect cells, tested form: HBr. On the procedure: as §1, §2, §3, §4, §5, §6, §7, §8, §9, §10, §11

pIC50: −log10 of the molar value. The structures given here were assigned with low confidence; some may be wrong.

As to `CCN(CC)c1ccc(-c2coc(-c3ccncc3)n2)cc1`, the pIC50 on Tie-2 is less than 4.30; on KDR, less than 4.60; on c-Met, less than 4.30.
